# Percent effect of library compounds

The chains behind the UniProt entries cited, without tags or fusion partners. Residues count along the entry.
UniProt P9WPC5, whole entry: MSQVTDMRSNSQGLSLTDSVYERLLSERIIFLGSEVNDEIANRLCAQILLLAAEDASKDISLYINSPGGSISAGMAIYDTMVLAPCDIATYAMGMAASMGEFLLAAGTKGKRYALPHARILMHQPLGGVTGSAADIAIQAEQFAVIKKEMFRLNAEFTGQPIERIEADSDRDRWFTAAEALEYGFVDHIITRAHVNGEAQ
UniProt P9WPC3, whole entry partner: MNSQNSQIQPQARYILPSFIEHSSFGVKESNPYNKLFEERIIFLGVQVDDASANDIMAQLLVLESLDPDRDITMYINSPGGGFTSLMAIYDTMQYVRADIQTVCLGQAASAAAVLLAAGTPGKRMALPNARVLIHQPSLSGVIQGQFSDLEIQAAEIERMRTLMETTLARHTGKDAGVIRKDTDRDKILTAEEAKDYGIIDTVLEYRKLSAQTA
UniProt Q4DA54, 1-478: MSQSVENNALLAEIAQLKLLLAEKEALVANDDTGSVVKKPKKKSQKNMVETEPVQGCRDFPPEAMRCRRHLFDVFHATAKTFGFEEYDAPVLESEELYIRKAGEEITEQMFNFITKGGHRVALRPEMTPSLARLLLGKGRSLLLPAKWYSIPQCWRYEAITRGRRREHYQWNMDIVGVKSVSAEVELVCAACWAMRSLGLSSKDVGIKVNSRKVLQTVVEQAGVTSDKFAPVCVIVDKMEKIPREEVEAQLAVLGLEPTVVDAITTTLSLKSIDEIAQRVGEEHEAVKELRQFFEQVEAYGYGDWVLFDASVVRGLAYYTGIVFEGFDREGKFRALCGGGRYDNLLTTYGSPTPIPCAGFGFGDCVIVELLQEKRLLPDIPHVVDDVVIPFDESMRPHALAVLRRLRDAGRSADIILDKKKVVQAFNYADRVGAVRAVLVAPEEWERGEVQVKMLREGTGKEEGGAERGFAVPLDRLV
UniProt P9WNZ1, whole entry: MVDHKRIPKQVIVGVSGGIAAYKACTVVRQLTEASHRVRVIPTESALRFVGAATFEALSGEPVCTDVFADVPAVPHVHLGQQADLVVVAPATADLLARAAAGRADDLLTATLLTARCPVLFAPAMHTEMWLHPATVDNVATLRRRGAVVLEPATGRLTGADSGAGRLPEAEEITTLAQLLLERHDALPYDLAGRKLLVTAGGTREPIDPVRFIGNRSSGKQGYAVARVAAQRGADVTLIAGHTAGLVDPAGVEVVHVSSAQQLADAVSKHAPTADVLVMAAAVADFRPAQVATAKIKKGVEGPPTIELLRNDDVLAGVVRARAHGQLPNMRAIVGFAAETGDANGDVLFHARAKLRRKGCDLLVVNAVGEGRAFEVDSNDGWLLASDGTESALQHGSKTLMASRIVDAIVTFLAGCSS

ClpP1P2: 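Protease assay of ClpP1P2, read by the AMC dye that it sets free. Target: ClpP1P2, Mycobacterium tuberculosis (UniProt P9WPC5 and UniProt P9WPC3). Compounds at 50 µM. Higher reads as stronger inhibition, judged from the few compounds that gave an IC50. Most other retested compounds had strongly negative values. About 69,000 compounds were tested under these conditions; 0.015% (about 10) showed 50% or more at least once.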
Toxoplasma: 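Assay of Toxoplasma gondii numbers, read through their beta-galactosidase reporter with a colour substrate. Tested at 10 µM. Higher reads as fewer parasites (inferred from which compounds were picked for retests). About 67,000 compounds were tested under these conditions; 0.38% (about 260) showed 50% or more at least once.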
Leishmania in macrophages: 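Cell assay of Leishmania donovani living inside macrophages; the read-out is not stated. Concentration: 30 µM. The record gives no direction; compounds that gave an IC50 in retests scored well above the rest, so higher reads as stronger inhibition. Of about 69,000 compounds tested this way, about 1,000 (1.5%) reached 50% or more in at least one test.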
TcHisRS: 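Enzyme assay of histidyl-tRNA synthetase; the read-out is not stated. Target: Histidine-tRNA ligase, Trypanosoma cruzi CL Brener (UniProt Q4DA54). Compounds at 30 µM. Higher reads as stronger inhibition (inferred: compounds with an IC50 in retests scored well above the rest). Of about 69,000 compounds tested this way, about 31 (0.045%) reached 50% or more in at least one test.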
CoaBC: 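Coenzyme A biosynthesis protein CoaBC, Mycobacterium tuberculosis (UniProt P9WNZ1). Enzyme assay of CoaBC with a phosphate dye (Biomol Green) read at 650 nm. Compounds at 30 µM. Higher reads as stronger inhibition, judged from the few compounds that gave an IC50. Most strong results did not repeat in a second test. Of about 67,000 compounds tested this way, about 40 (0.06%) reached 50% or more in at least one test.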

Values are the deposited “Percent Effect”, in %.
The record does not define 0% and 100%; most values in the screen are far below 50% and negative numbers occur (in some assays of this library far below -100).
This is an unselected part of the compounds tested.
A dash means the value is not listed here; it may have been measured.

structure	ClpP1P2	Toxoplasma	Leishmania in macrophages	TcHisRS	CoaBC
CC(C)SCc1cccc(NC(=O)NCCc2nnc[nH]2)c1	-5.446	2.101	14.6	-0.6024	-0.6098
Cc1ncsc1CN1CC[C@H]2OCC[C@@]2(C(=O)NC2CC2)C1	13.09	-	-	8.602	-0.6316
Cc1ccc(C(=O)NS(=O)(=O)c2ccccc2F)c(=O)[nH]1	-22.77	-2.202	13.11	1.17	0.5102
Cc1c(NCc2cccc(C#N)c2)cccc1S(=O)(=O)NC1CC1	2.97	-5.664	19.91	9.74	-2.056
CC(C)(C)Cc1nnc(NCc2cccc(C#N)c2)o1	-1.666	-	8.402	11.49	2.091
Cc1nn(CC(=O)N2CCN(Cc3cnn(C)c3C)CC2)cc1Cl	-7.061	-7.048	-34.8	-5.941	3.855
CN(Cc1nc(-c2cccnc2)no1)C(=O)c1cccn1C	13.88	-2.271	-13.14	6.494	5.122
Cc1ccc(S(=O)(=O)N2CC[C@H]3CO[C@H](CN(C)C)[C@H]3C2)cc1	-6.129	-	-	4.202	-16.43
Cc1nc(C)c(C(C)NCc2c(C)nn(CC(C)C)c2N(C)C)s1 (stereo not shown)	5.08	7.674	0.6505	10	1.24
NS(=O)(=O)N1CCc2ccc(NC(=O)Cc3ccccc3F)cc21	21.31	-4.425	27.92	11.82	-0.641
COCCNC(=O)C1CN(Cc2nccs2)Cc2ccnn2C1.O=C(O)C(F)(F)F.O=C(O)C(F)(F)F (stereo not shown)	-	-19.9	44.57	-	-
CN(C)CCCNC(=O)c1ccccc1NC(=O)c1cc(Cl)ccc1Cl	0.007451	-	24.02	5.941	2.552
COCCN(Cc1ccncc1)C(=O)C1COc2ccccc2C1 (stereo not shown)	-6.981	3.04	17.26	5.882	-0.9828
CCCN1CC2(CCN(c3ncc(F)cn3)CC2)CC1C(=O)O (stereo not shown)	-12.33	-29.82	35.89	10.2	1.373
Cn1ccc2ccc(C(=O)N3CCN(C(=O)OC(C)(C)C)CC3)cc21	-8.399	-6.162	1.752	6.433	-1.768
CC(=O)N1CCN(Cc2ccco2)CC2(CC(=O)N(C)C2)C1 (stereo not shown)	17.8	-	-	5.288	0.9412
CC1(c2cc[nH]n2)CCN(C(=O)c2ccc(Cl)cc2)CC1	-13.67	4.457	18.38	5.639	8.858
Cc1ccc(S(C)(=O)=O)cc1C(=O)NS(C)(=O)=O	-12.16	-7.394	-13.99	6.349	5.992
O=C1CO[C@@H]2CN(CC3CC3)C[C@H]2N1Cc1cccc(F)c1	0.2076	-	-	1.97	-2.792
COC(=O)CN(C(=O)c1ccco1)c1cccc(F)c1	-11.71	-5.146	-4.639	9.639	6.188
O=C(O)c1ccn(-c2ccccc2NS(=O)(=O)c2ccccc2)n1	-19.98	-1.872	1.852	6.224	-6.696
Cc1nnc2n1CCN(C(=O)c1ccc(Cn3cccc3)cc1)C2	14.26	15.33	31.57	11.34	3.132
Cc1ccccc1CNC(=O)N1C[C@H]2C[C@H](C(=O)N(C)C)[C@@H](C1)O2	-2.03	-	-	3.448	-9.572
CN1CCN(Cc2cnc(S(=O)(=O)CC3CC3)n2CC2CCCO2)CC1 (stereo not shown)	-3.423	12.19	-9.898	5.291	3.748
O=C(O)C(F)(F)F.[H][C@@]12CCCO[C@]1([H])[C@@H](OCC(=O)N(C)C)CN2Cc1ccc(F)cc1	-	-3.147	38.44	-	-
CS(=O)(=O)N1C[C@H]2CCCN(Cc3nccs3)[C@H]2C1	-0.06533	-	-	4.301	0.6342
CN(C)S(=O)(=O)N1CCC(Oc2ccc(C#N)cn2)CC1	-6.836	1.22	-10.62	0	3.169
OCC1(CC2CC2)CCCN(Cc2cnc(N3CCOCC3)nc2)C1 (stereo not shown)	0.8806	0.1873	-16.23	3.743	-11.3
COc1cccc(OCCNS(C)(=O)=O)c1	-10.67	14.99	-11.52	5	-10.74
O=C(CCCN1CCCCC1)NC(C(=O)O)c1ccc(Cl)cc1 (stereo not shown)	-6.311	-7.719	-4.28	2.679	2.642
CC(C)(C)c1nc(CNc2cc3c(cc2Cl)NC(=O)CO3)no1	-11.13	8.671	27.65	2.609	7.818
O=C(O)c1ncccc1N1CCCCC1	5.14	27.25	1.512	6.25	1.611
CCCOCC1CCN(C(=O)Cn2ncc(N3CCCC3)cc2=O)C1 (stereo not shown)	-1.617	13.19	7.416	5.603	1.648
O=C(CCc1nc2cccnc2[nH]1)NCc1ccc2c(c1)OCO2	3.838	-2.271	6.056	0.5464	0.6729
CCn1ncc2c1C(COC)N(C(=O)CCc1ccccc1)CC2 (stereo not shown)	-6.981	-	-	0	-1.728
CCN(Cc1nccn1C)C(=O)c1ccc(NCC(C)C)nc1	-22.26	1.192	-17.71	3.865	-0.8696
COc1cc(CN[C@@H]2COC[C@H]2Cc2cc(C)no2)cc(OC)c1	-8.937	-	-	3.745	3.594
CCN1CC2(CC1=O)CN(C(=O)c1ccco1)CCN(C(=O)N(C)C)C2 (stereo not shown)	2.134	12.75	-2.557	0.8264	2.796
N#Cc1ccc(N2CCN(c3ccc4nncn4n3)CC2)nc1	-4.983	-14.16	-5.025	6.316	0.3984
Cc1nc(-c2ccsc2)ccc1C(=O)NCCC(=O)N1CCCC1	-5.757	-15.67	14.13	4.943	-1.596
Cc1nn(C)c(N(C)C)c1CNCC(O)c1ccccc1F (stereo not shown)	20.51	-14.83	6.406	4.023	-4.258
O=C(NCCCn1cncn1)N1CCC(N2CCCCC2)CC1	-11.93	1.319	18.67	5.917	6.21

For reference, 2 entries once more:

{"structure": "COCCN(Cc1ccncc1)C(=O)C1COc2ccccc2C1", "stereo": "stereo not shown", "ClpP1P2": -6.981, "Toxoplasma": 3.04, "Leishmania in macrophages": 17.26, "TcHisRS": 5.882, "CoaBC": -0.9828}
{"structure": "Cc1ccc(S(C)(=O)=O)cc1C(=O)NS(C)(=O)=O", "ClpP1P2": -12.16, "Toxoplasma": -7.394, "Leishmania in macrophages": -13.99, "TcHisRS": 6.349, "CoaBC": 5.992}

Data taken from ChEMBL document CHEMBL3988442, “University of Dundee, Small-Polar-MMV Screening Library” (2021).